In article PMC5360445, “SMOC can act as both an antagonist and an expander of BMP signaling” (eLife, 2017):

Key:
[1] = target: XSMOC-1EC (EC domain only of XSMOC-1) (Xenopus); test: pull-down; heparin Sepharose (0.3 μl) saturated with XSMOC-1 or XSMOC-1EC (6 μg), incubated with BMP2 (4 μg) in PBS (physiological ionic strength); unbound and eluted fractions on SDS-PAGE, Coomassie staining; both purified
[2] = target: recombinant mature XSMOC-1 (Xenopus SMOC-1) (Xenopus); test: as above

- binding [1]: no binding (tested: BMP2 (4 μg))
- binding [2]: no binding (tested: BMP2 (4 μg))
B1: human BMP2 (mature BMP2, A284-R396) (ligand, UniProt P12643 284-396)
chain: AKHKQRKRLKSSCKRHPLYVDFSDVGWNDWIVAPPGYHAFYCHGECPFPLADHLNSTNHAIVQTLVNSVNSKIPKACCVPTELSAISMLYLDENEKVVLKNYQDMVVEGCGCR

Results are given in words; binding and its absence hold for the method and conditions named.
